Data as given in PubChem BioAssay AID248 (DTP/NCI, 2004).
The list shows only some results of the screen, not a fair sample: it gathers tests that were run many times, whatever their T/C, doses with no T/C, and many T/C values between a quarter and a half above the control. Further doses and runs are listed elsewhere. T/C: endpoint of the treated group in % of that of the vehicle group. Some entries give survivors of the animals treated and no T/C: the source holds a T/C of zero for them, seemingly a mark for toxic or unscored doses. Some survivor counts are full or nearly so, which does not show that the dose was tolerated: survival well below the control is almost never listed, so the zero probably covers shortened survival too. Survivors were counted at the toxicity check, usually on the fifth day, unless a day is given; later deaths do not show. Schedules are NCI's codes, read here as Q, the interval in days (D) or hours (H), X, the number of doses. Some entries hold several experiments; the results are listed from low to high. Some schedules carry Z or #; the key to these is not given. Some molecules as drawn cover several salts, stereoisomers or complexes of the source; a dose is that of the sample tested. For survival time, this PubChem deposit counts one and a half times the control or more as active, and values a quarter to a half above the control carry no call in these data; other NCI protocols may use other cut-offs. Some T/C values carry the count of animals alive at the toxicity check (mostly the fifth day); where none is given, no animal had died by that day.

Test system: L1210 leukemia ip in BDF1 mice, survival T/C
Experiment: NCI In Vivo Anticancer Drug Screen. Data for tumor model L1210 Leukemia (intraperitoneal) in B6D2F1 (BDF1) mice
Details: T/C endpoint: mean survival time, higher T/C = longer survival
[1] = dose: 400.0 mg/kg/injection, schedule: Q01DX001 (ip), vehicle: saline
[2] = dose: 100.0 mg/kg/injection, schedule: Q01DX009 (ip), vehicle: Klucel (hydroxypropylcellulose) (HPC)
[3] = dose: 200.0 mg/kg/injection, schedule: Q01DX009 (ip), vehicle: Klucel (hydroxypropylcellulose) (HPC)
[4] = dose: 400.0 mg/kg/injection, schedule: Q01DX009 (ip), vehicle: Klucel (hydroxypropylcellulose) (HPC)
[5] = dose: 100.0 mg/kg/injection, schedule: Q01DX001 (ip), vehicle: saline
[6] = dose: 200.0 mg/kg/injection, schedule: Q01DX001 (ip), vehicle: saline
[7] = dose: 400.0 mg/kg/injection, schedule: Q01DX009 (ip), vehicle: saline

CN(C)Cc1ccc(C(C)(C)C)cc1
survivor count (dose: 200.0 mg/kg/injection, schedule: Q01DX009 (ip), vehicle: water): 0 of 6 | survivor count (dose: 400.0 mg/kg/injection, schedule: Q01DX009 (ip), vehicle: water): 0 of 6

Cc1ccc(C)c(CCC(C)CCCC(C)C)c1 (centres undefined)
survivor count [1]: 3 of 6

Cn1cnc(N)c1/C(N)=N/O
survivor count (dose: 50.0 mg/kg/injection, schedule: Q01DX005 (ip), vehicle: saline): 4 of 6 | survivor count (dose: 100.0 mg/kg/injection, schedule: Q01DX005 (ip), vehicle: saline): 4 of 6 | survivor count (dose: 200.0 mg/kg/injection, schedule: Q01DX005 (ip), vehicle: saline): 0 of 6 | survivor count (dose: 400.0 mg/kg/injection, schedule: Q01DX005 (ip), vehicle: saline): 0 of 6

CCN(CC)CCC(C#N)(CC=C(C)C)c1cccc2ccccc12 (centres undefined)
survivor count [2]: 2 of 6 | survivor count [3]: 0 of 6 | survivor count [4]: 0 of 6

COc1ccc(-n2cnc3c(=O)[nH]c(N)nc32)cc1
survivor count [5]: 6 of 6 | survivor count [1]: 6 of 6

CCCCCCCC/C=C\CCCCCCCCN1CC(C(=O)[O][Pb]([CH2]C)([CH2]C)[CH2]C)CC1=O (centres undefined)
survivor count (dose: 12.5 mg/kg/injection, schedule: Q01DX009 (ip), vehicle: saline with Tween-80): 3 of 3 | survivor count (dose: 25.0 mg/kg/injection, schedule: Q01DX009 (ip), vehicle: saline with Tween-80): 0 of 3 | survivor count (dose: 50.0 mg/kg/injection, schedule: Q04DX002 (ip), vehicle: saline with Tween-80): 0 of 3 | survivor count (dose: 100.0 mg/kg/injection, schedule: Q04DX002 (ip), vehicle: saline with Tween-80): 0 of 3 | survivor count (dose: 200.0 mg/kg/injection, schedule: Q04DX002 (ip), vehicle: saline with Tween-80): 0 of 3 | survivor count (dose: 400.0 mg/kg/injection, schedule: Q04DX002 (ip), vehicle: saline with Tween-80): 0 of 3

c1ccc(C2(C3(c4ccccc4)SCCCS3)CN2)cc1 (centres undefined)
survivor count (dose: 400.0 mg/kg/injection, schedule: Q01DX001 (ip), vehicle: Klucel (hydroxypropylcellulose) (HPC)): 6 of 6

O=S(=O)(O)C(I)I
survivor count (dose: 50.0 mg/kg/injection, schedule: Q01DX001 (ip), vehicle: saline): 0 of 3 | survivor count [5]: 0 of 3 | survivor count [6]: 0 of 3 | survivor count [1]: 0 of 3

c1ccc(C2CC([P+](c3ccccc3)(c3ccccc3)c3ccccc3)=NN2)cc1 (centres undefined)
survivor count (dose: 6.25 mg/kg/injection, schedule: Q01DX009 (ip), vehicle: Klucel (hydroxypropylcellulose) (HPC)): 2 of 3 | T/C (dose: 12.5 mg/kg/injection, schedule: Q01DX009 (ip), vehicle: Klucel (hydroxypropylcellulose) (HPC)): 126 % of control | survivor count (dose: 25.0 mg/kg/injection, schedule: Q01DX009 (ip), vehicle: Klucel (hydroxypropylcellulose) (HPC)): 0 of 3, 1 of 6, 1 of 3 | survivor count (dose: 50.0 mg/kg/injection, schedule: Q01DX009 (ip), vehicle: Klucel (hydroxypropylcellulose) (HPC)): 0 of 3 | survivor count (dose: 100.0 mg/kg/injection, schedule: Q01DX001 (ip), vehicle: Klucel (hydroxypropylcellulose) (HPC)): 3 of 6 | survivor count (dose: 100.0 mg/kg/injection, schedule: Q01DX002 (ip), vehicle: Klucel (hydroxypropylcellulose) (HPC)): 0 of 6 | survivor count [2]: 0 of 3 and 3 of 6 | survivor count (dose: 200.0 mg/kg/injection, schedule: Q01DX001 (ip), vehicle: Klucel (hydroxypropylcellulose) (HPC)): 1 of 6 | survivor count [3]: 0 of 6 | survivor count [4]: 0 of 6

CCCCCCCCCCCCCCCCCCNC(=O)Cc1ccc(N(CCCl)CCCl)cc1
T/C [4]: 130 % of control

CC12CC3CC(C1)CC(C(=O)O)(C3)C2
survivor count [7]: 2 of 6

CCC(/C=N/N=C(N)N)=N\N=C(N)N
survivor count (dose: 120.0 mg/kg/injection, schedule: Q01DX Z (ip), vehicle: saline): 1 of 6 | survivor count (dose: 240.0 mg/kg/injection, schedule: Q01DX Z (ip), vehicle: saline): 0 of 6 | survivor count (dose: 480.0 mg/kg/injection, schedule: Q01DX Z (ip), vehicle: saline): 0 of 6 | survivor count (dose: 960.0 mg/kg/injection, schedule: Q01DX Z (oral), vehicle: saline): 1 of 6

NCc1cccc2ccccc12
survivor count (dose: 250.0 mg/kg/injection, schedule: Q01DX001 (ip), vehicle: saline): 3 of 6 | survivor count [1]: 0 of 6

Cc1cc(C)c(NC(=O)c2c(Cl)c(Cl)c(Cl)c(Cl)c2C(=O)O)c(C)c1
survivor count [3]: 4 of 6 | survivor count [4]: 0 of 6

O=C(Nc1ccc(N=C(c2ccccc2)N2CCOCC2)cc1)c1ccc(C(=O)Nc2ccc(N=C(c3ccccc3)N3CCOCC3)cc2)cc1
survivor count (dose: 500.0 mg/kg/injection, schedule: Q01DX Z (ip), vehicle: carboxymethylcellulose (CMC)): 6 of 6

CN(C)N=Nc1ccccc1C(N)=O
T/C (dose: 62.5 mg/kg/injection, schedule: Q01DX009 (ip), vehicle: saline with Tween-80): 135 % of control | T/C (dose: 100.0 mg/kg/injection, schedule: Q01DX009 (ip), vehicle: other): 137 % of control | T/C (dose: 225.0 mg/kg/injection, schedule: Q01DX009 (ip), vehicle: other): 139 % of control | T/C (dose: 225.0 mg/kg/injection, schedule: Q01DX009 (ip), vehicle: saline with Tween-80): 128 % of control | T/C (dose: 250.0 mg/kg/injection, schedule: Q01DX001 (ip), vehicle: saline with Tween-80): 144 % of control [8 of 10 alive] | survivor count (dose: 250.0 mg/kg/injection, schedule: Q01DX009 (ip), vehicle: saline with Tween-80): 7 of 10 | T/C (dose: 300.0 mg/kg/injection, schedule: Q01DX001 (ip), vehicle: saline with Tween-80): 125 % of control | survivor count (dose: 500.0 mg/kg/injection, schedule: Q01DX001 (ip), vehicle: saline with Tween-80): 0 of 10 | survivor count (dose: 600.0 mg/kg/injection, schedule: Q01DX001 (ip), vehicle: saline with Tween-80): 1 of 10

[CH3][Sn]([CH3])([Cl])[CH2]Cl
survivor count (dose: 6.25 mg/kg/injection, schedule: Q01DX009 (ip), vehicle: saline): 3 of 6 and 5 of 6 | survivor count (dose: 12.5 mg/kg/injection, schedule: Q01DX009 (ip), vehicle: saline): 0 of 6 | survivor count (dose: 25.0 mg/kg/injection, schedule: Q01DX009 (ip), vehicle: saline): 0 of 6 | survivor count (dose: 25.0 mg/kg/injection, schedule: Q04DX002 (ip), vehicle: saline): 0 of 3 | survivor count (dose: 50.0 mg/kg/injection, schedule: Q04DX002 (ip), vehicle: saline): 0 of 3 | survivor count (dose: 100.0 mg/kg/injection, schedule: Q04DX002 (ip), vehicle: saline): 0 of 3 | survivor count (dose: 200.0 mg/kg/injection, schedule: Q04DX002 (ip), vehicle: saline): 0 of 3 | survivor count (dose: 400.0 mg/kg/injection, schedule: Q04DX002 (ip), vehicle: saline): 0 of 3

CCOC(=O)C1(c2ccccc2)CCN(CC(O)COc2cc(C)ccc2C(C)C)CC1 (centres undefined)
survivor count [3]: 1 of 6 | survivor count [4]: 0 of 6

O=c1c(-c2ccccc2)c(-c2ccccc2)c1=O
survivor count (dose: 300.0 mg/kg/injection, schedule: Q01DX001 (ip), vehicle: saline): 2 of 6

CC1(C)N=C(N)N=C(N)N1c1cccc(OCCCOc2ccc(N)cc2)c1
survivor count (dose: 80.0 mg/kg/injection, schedule: Q01DX001 (ip), vehicle: saline): 3 of 6 | survivor count [5]: 0 of 4 | survivor count [6]: 0 of 4 | survivor count [1]: 0 of 4

CC[As](=O)(O)CC(C)C
survivor count (dose: 200.0 mg/kg/injection, schedule: Q01DX009 (ip), vehicle: saline): 0 of 6 | survivor count [7]: 0 of 6

Nc1nc(N)n(Cc2ccc3c(c2)OCO3)n1
survivor count (dose: 100.0 mg/kg/injection, schedule: Q01DX009 (ip), vehicle: saline with Tween-80): 6 of 6

Nc1nc(Nc2ccc(NC=O)cc2)c(NC=O)c(=O)[nH]1
survivor count [5]: 6 of 6

CC(=O)n1ccnc1/C=C\c1ccc([N+](=O)[O-])s1
survivor count (dose: 400.0 mg/kg/injection, schedule: Q04DX003 (ip), vehicle: Klucel (hydroxypropylcellulose) (HPC)): 0 of 6

c1ccc2c(c1)cnn1cnnc21
survivor count (dose: 300.0 mg/kg/injection, schedule: Q01DX001 (ip), vehicle: carboxymethylcellulose (CMC)): 0 of 6
